Results are given in words; binding and its absence hold for the method and conditions named. Some results given as binding are weak or reduced against the parent protein; the word gives no strength.
Tests used:
[1] = target: human IL-6 receptor (soluble hIL-6R) (human) (UniProt P08887); assay: phage ELISA (Fab on phage) on biotin-labeled antigen, without ATP and adenosine (compared with 10 mM)
[2] = target: human IL-6 receptor (soluble hIL-6R) (human) (UniProt P08887); assay: phage ELISA (Fab displayed on phage), biotin-labeled human IL-6 receptor on streptavidin plate, absorbance 450 nm; binding in the absence of ATP and adenosine, reduced by 10 mM ATP and adenosine

Sequences of proteins named here, by UniProt entry; tags and fusion partners are left off. A change or cut given only in a name is not applied to a line headed by its entry.
UniProt P08887: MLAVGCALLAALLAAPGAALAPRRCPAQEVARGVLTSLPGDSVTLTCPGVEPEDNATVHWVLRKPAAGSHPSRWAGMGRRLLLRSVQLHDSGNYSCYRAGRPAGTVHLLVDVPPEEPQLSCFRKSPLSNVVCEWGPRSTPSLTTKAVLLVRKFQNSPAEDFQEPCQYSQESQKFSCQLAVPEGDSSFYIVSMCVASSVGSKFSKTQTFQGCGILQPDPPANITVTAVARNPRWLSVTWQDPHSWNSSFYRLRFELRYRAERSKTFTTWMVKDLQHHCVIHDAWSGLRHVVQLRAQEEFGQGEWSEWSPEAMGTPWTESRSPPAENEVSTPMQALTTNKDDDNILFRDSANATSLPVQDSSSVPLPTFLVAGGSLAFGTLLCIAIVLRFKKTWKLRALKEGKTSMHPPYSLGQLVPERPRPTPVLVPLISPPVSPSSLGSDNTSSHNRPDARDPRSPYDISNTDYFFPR

| binding [1] | binding [2] | Binder |
| --- | --- | --- |
| binds | binds | 6RRLSA1-6_045 (Fab, V domains shown) VH: EVQLVESGGDLVKPGGGLRLSCAASGFTFSGYTMHWVRQAPGKGLEWVSSISSRSNHRSYADSVKGRFTISRDNAKNSLYLQMNSLRAEDTAVYYCARFGKRFDRNWVFDYWGQGTLVTVSS VL: QSALTQPPSASGSPGQTVTISCTGTSTDVGTYNYVSWYQQHPGKAPKLMIYKTSKRPSGVPDRFSGSKSGNTASLTVSGLQAEDEADYFCSSRRYRRSLSFGGGTKLTVL |
| binds | binds | 6RRLSA1-6_037 (Fab, V domains shown) VH: EVQLVESGGDLVKPGGGLRLSCAASGFTFSTYTMHWVRQAPGKGLEWVSSISSRSGHRHYADSVKGRFTISRDNAKNSLYLQMNSLRAEDTAVYYCARYGKKGNRNWVFDYWGQGTLVTVSS VL: QSALTQPPSASGSPGQTVTISCTGTSTDVGGYNYVSWYQQHPGKAPKLMIYSTSKRPSGVPDRFSGSKSGNTASLTVSGLQAEDEADYFCSTTTYAKNPVFGGGTKLTVL |
